Test results reported in PMC4642984.
These are yes or no findings as the source states them, for the method shown. In cells and extracts the contact can be indirect. Binding calls can cover weak binding; strength is not graded here.

The chains behind the UniProt entries cited, without tags or fusion partners. Where a name states a change or a piece, a line headed by the entry shows the natural chain unless it says otherwise.
UniProt Q9WTL8: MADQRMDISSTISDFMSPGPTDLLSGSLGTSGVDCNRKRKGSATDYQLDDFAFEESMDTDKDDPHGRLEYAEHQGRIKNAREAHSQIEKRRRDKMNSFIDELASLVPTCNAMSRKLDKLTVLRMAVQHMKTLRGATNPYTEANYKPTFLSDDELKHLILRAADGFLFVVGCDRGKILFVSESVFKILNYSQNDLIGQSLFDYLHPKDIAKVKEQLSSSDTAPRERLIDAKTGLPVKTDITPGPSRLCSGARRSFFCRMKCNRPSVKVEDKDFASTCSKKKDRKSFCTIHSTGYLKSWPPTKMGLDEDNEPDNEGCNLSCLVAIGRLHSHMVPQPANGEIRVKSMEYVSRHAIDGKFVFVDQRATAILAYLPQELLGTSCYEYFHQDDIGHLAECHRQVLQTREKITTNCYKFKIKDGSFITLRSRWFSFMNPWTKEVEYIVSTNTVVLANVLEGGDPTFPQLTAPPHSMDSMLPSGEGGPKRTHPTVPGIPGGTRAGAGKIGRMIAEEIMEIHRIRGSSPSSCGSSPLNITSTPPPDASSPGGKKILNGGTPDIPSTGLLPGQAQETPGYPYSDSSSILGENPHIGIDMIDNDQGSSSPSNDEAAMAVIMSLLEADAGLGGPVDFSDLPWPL
UniProt P67870: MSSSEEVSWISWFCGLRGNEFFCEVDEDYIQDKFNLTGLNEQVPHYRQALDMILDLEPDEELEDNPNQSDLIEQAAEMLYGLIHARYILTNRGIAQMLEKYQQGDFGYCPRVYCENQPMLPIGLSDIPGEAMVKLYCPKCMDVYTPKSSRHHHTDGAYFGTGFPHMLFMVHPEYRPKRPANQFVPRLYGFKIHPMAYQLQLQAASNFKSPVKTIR

How the values were obtained:
Assay in all cases: split reporter; Split Luc complementation in living Cos7 cells transfected with ELucN-CK2β and ELucC-BMAL1 (WT or mutant) together with pcDNA, Myc-HA-CRY1, Myc-CRY2 or FLAG-CRY1 (WT or Cd1-4); real-time bioluminescence, averaged peak values
[1] = target: ELucC-BMAL1 deletion mutant Bd3 (mouse) (UniProt Q9WTL8)
[2] = target: ELucC-BMAL1 deletion mutant Bd2 (mouse) (UniProt Q9WTL8)
[3] = target: ELucC-BMAL1 deletion mutant Bd1 (mouse) (UniProt Q9WTL8)

Measured: binding

ELucN-CK2β (from UniProt P67870 1-215)
binds: [1] | [2] | [3]
